From patent publication US20090325923A1, “NEW METHOD FOR THE TREATMENT OF INFLAMMATORY DISEASES” (TOPOTARGET SWITZERLAND SA, priority 2006, published 2009)

Assay: Total anti-collagen IgG ELISA in CIA mice
Type: in vivo, mouse
Conditions: end of the therapy (day 15)

Compound: O=C(/C=C/c1cccnc1)NCCCCC1CCN(C(=O)c2ccccc2)CC1 [FK866, (E)-N-[4-(1-benzoylpiperidin-4-yl)butyl]-3-(pyridine-3-yl)-acrylamide]
- difference in anti-collagen IgG levels between control and FK866-treated mice: No significant difference
- total anti-collagen IgG levels (treated mice n=15): 106.5+/−17.6 arbitrary units
